Measured values reported in patent publication US20210309716A1.
Results are given in words; binding and its absence hold for the method and conditions named. Some results given as binding are weak or reduced against the parent protein; the word gives no strength.

Protein sequences, listed by entry. Tags and fused reporters are not part of them. Lines headed by an entry give the natural chain unless they say otherwise; changes in a name come on top.
UniProt P20023: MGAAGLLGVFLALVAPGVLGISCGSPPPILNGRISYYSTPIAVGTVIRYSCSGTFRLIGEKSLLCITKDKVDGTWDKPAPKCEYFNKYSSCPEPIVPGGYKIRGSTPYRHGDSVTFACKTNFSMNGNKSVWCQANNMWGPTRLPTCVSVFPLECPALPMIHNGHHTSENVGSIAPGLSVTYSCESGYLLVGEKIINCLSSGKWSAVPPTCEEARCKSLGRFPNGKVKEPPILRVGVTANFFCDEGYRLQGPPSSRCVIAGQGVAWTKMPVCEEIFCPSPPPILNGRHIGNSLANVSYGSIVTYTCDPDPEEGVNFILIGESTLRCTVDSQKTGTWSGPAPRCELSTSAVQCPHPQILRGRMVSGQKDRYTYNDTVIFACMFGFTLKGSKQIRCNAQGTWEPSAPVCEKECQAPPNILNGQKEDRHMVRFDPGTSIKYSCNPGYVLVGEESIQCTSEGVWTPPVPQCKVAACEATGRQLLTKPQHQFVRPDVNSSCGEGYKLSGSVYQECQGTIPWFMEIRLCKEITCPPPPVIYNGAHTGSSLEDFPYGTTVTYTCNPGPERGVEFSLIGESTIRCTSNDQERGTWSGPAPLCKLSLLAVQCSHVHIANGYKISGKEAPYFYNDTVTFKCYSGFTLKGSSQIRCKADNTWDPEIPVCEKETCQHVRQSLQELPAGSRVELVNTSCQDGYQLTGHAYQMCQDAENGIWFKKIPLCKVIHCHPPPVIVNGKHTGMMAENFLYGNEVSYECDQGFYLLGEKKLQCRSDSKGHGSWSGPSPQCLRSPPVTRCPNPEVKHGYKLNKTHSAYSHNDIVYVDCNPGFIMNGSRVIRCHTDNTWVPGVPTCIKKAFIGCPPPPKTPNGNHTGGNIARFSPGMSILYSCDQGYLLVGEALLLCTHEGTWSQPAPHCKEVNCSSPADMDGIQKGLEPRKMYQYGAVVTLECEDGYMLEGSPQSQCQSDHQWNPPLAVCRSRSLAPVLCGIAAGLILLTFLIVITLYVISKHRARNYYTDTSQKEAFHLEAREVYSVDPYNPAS

Target: human CD21 (human) (UniProt P20023)
Test: phage display panning on beads coated with immobilised CD21; clones tested as ScFv-MuFc fusions by flow cytometry on H9 cells transduced to express CD21 (FIG. 4D)

| Binder | binding |
| --- | --- |
| MP27963 (Fc fusion, not shown: a dimerising Fc or GST; small tags and cut ends) scFv: QVQLQQSGAELVRPGSSVKISCKASGYTFTSNFMHWIKQQPGNGLEWIGWISPGDGDTEYNQKFNGKATLTADESSSTAYIQLSGLTSEDSAVYFCARGDSSGWGPNWFDSWGQGTLVTVSSGGGGSGGGGSGGGGSDIQMTQSPSSMSASLGDTVTITCLASQDIGNYLSWYQQKPGKSPKLMIYDVNNLEDGVPSRFSGSRSGSNHSLTINSLGYDDEGIYHCQQYYEYPLTFGSGTKLEIKR | binds |
| MP27964 (Fc fusion, not shown: a dimerising Fc or GST; small tags and cut ends) scFv: EVHLQQSGAELVKPGSSVKISCKASGYTFTSNFMHWIKQQPGNGLEWIGWIYPGDGDTEYNQKFNGKASLTADKSSSTAYMQLSSLTSEDSAVYFCALSGDGYFDYWGQGVMVTVSSGGGGSGGGGSGGGGSEIVLTQSPTTMTASPGEKVTITCRVSSSVSYMHWYQQKPDASPKPWIYETSKLASGVPDRFSGSGSGTSYSLTINNMEAEDAATYYCQQWNFPLTFGSGTKLEIKR | binds |
| MP27965 (Fc fusion, not shown: a dimerising Fc or GST; small tags and cut ends) scFv: QVQLQQSGAELVKPGSSVKISCKASGYTFTTNFMHWIKQQPGNGLEWIGWINPGDGNTEYNQKFNVKATLTADKSSSTAYMELGSLTSEDSAVYFCARGDYSGWGPNWFDYWGQGTLVTVSSDGGGSGGGGSGGGGSDIQMTQSPASLSASLGETVTIECRASEDIYSNLAWYQQKPGNSPQLLIHDANNLADGVPSRFSGSGSGTQYSLKINSLQSEDVASYFCQQYNNYPLTFGSGTKLEIKR | binds |
| MP27966 (Fc fusion, not shown: a dimerising Fc or GST; small tags and cut ends) scFv: QVQLQQSGAELVKPGSSVKISCKASGYTFTTNFMHWIKQQPGNGLEWIGWINPGDGNTEYNQKFNVKATLTADKSSSTAYMELGSLTSEDSAVYFCARGDYSGWGPNWFDYWGQGTLVTVSSGGGGSGGGGSGGGGSDIQLTQSPSSMSASLGDTVTITCLASQDIGDYLSWYQQKPGKSPKVMVYGATNLEDGVPSRFSGSRSGSDYSLTINSLGYDDEGIYHCHQYYQYPLTFGSGTKLEIKR | binds |
| MP27967 (Fc fusion, not shown: a dimerising Fc or GST; small tags and cut ends) scFv: EVQLQQSGAELGKPGTSVKLSCKVSGYNIRNTYIHWVNQRPGKGLEWIGRIDPANGDTIYAEKFKSKATLTADTSSNTAYMQLSQLKSDDTAIYFCAMRMVGTGGYAMDAWGQGASVTVSSGGGGSGGGGSGGGGSDIVLTQSPALAVSPGQRATISCRASQSVSISSVNLMNWYQQKPGQQPKLLIYHASNLASGIPTRFSGSGSGTDFTLTIDPVQADDIATYYCQQSRESPWTFGGGTKLELKR | binds |
| MP28132 (Fc fusion, not shown: a dimerising Fc or GST; small tags and cut ends) scFv: QVQLQQSGAELVEPGSSVKISCKASGYTFTSNFMHWIRQQPGNGLEWIGWVYRGDGDTEYNQRFNGKATLTADESSSTAYIQLSGLTSEDSAVYFCARGDSSGWGPNWFDSWGQGTLVTVSSGGGGSGGGGSGGGGSDVQMTQSPASLSASLGETVTIECRASEDIYSNLAWYQQKPGNSPQLLIYDANSLADGVPSRFSGSGSGTQYSLKINSLQSEDVASYFCQQYNNYPLTFGSETRLEIKR | binds |
